{
  "source": "patent US20050287132A1",
  "about": "“Biliverdin reductase fragments and variants, and methods of using biliverdin reductase and such fragments and variants” (University of Rochester, priority 1999, published 2005)",
  "molecules": {"B1": {"name": "Ser^149: hBVR SEQ. ID. No. 1 with Ser^149→Ala within the kinase motif of the leucine zipper (protein, listed as Homo sapiens)", "chain": "MNAEPERKFGVVVVGVGRAGSVRMRDLRNPHPSSAFLNLIGFVSRRELGSIDGVQQISLEDALSSQEVEVAYICSESSSHEDYIRQFLNAGKHVLVEYPMTLSLAAAQELWELAEQKGKVLHEEHVELLMEEFAFLKKEVVGKDLLKGALLFTSDPLEEDRFGFPAFSGISRLTWLVSLFGELSLVSATLEERKEDQYMKMTVCLETEKKSPLSWIEEKGPGLKRNRYLSFHFKSGSLENVPNVGVNKNIFLKDQNIFVQKLLGQFSEKELAAEKKRILHCLGLAEEIQKYCCSRK"}},
  "experiment": "Biliverdin reductase activity of E. coli expressed hBVR wild type and mutants (Example 1)",
  "type": "biochemical, human",
  "details": "pH 8.7 with NADPH",
  "description": "SalI linkers are underlined in each primer. The products were digested with SalI and cloned into the vector pGEX 4T-2. Orientation was determined by restriction analysis and confirmed by sequencing. The ligation places the BVR coding region in frame with the GST protein of the vector. GST-BVR fusion proteins were purified from bacterial clones containing the plasmid, and grown overnight using a glutathione-sepharose 4B column (Pharmacia). The reductase portion of the fusion protein was released by thrombin protease treatment.\nActivity was determined as previously described (Kutty et al., J. Biol. Chem. 256:3956-3962 (1981); Huang et al., J. Biol. Chem. 264:7844-7849 (1989), which are hereby incorporated by reference). Activity was determined in a 1 ml assay volume that contained 0.1 M Tris/HCl, pH 8.7 NADPH (100 μM), and biliverdin (5 μM). Reductase activity was also measured using NADH (1 mM) as the cofactor; in this case 0.1 M potassium phosphate pH 6.75, was substituted for Tris/HCl. […] The relative amounts of immunoreactive protein were determined by scanning the blot using a laser densitometer and comparing the area under the peak for each mutant with the wild type. The rate of activity was measured as the increase in 450 nm absorbance at 25° C. Specific activity is expressed as nmol bilirubin/min/ mg protein.",
  "note": "Some of these results come from one statement about several compounds together.",
  "data": [
    {"molecule": "B1", "values": [
      {"measurement": "reductase activity relative to the control (wild type)", "value": "20-25%"}
    ]}
  ]
}
